Values from PubChem BioAssay AID1159578 (Peter MacCallum Cancer Centre, 2015).
Shown is one part, drawn at random, of about 18,000 deposited reagents. About 1,030 of them (5.7%) count as active. 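Inactive calls also include pools with fewer than 3300 nuclei, whose migration was not assessed.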 Raw values vary from plate to plate and are shown uncorrected. Unmarked entries are inactive. Further read-outs or replicates are left out here.

Assay: 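Knock-downs that alter how fast lymphatic endothelial cells migrate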 (primary screen)
System: human lymphatic endothelial cells
Reagents: siRNA pool against human genes, 40 nM
Timing: 48 h after transfection
Read-out: 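Cells stained with dye and imaged after a scratch; covered wound area and nuclei counted, duplicates averaged, migration set against mock wells and turned into a robust z-score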
Direction: migration robust z-score: higher = faster migration into the scratch; nuclei per well: higher = more cells in the well
Call rule: 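Pools averaging fewer than 3300 nuclei are never called; remaining pools count as changed when migration robust z lies outside -2 to 2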
Meaning of the calls: active = migration changed; inactive = no migration change, or too few cells

For RPP21 (GeneID 79897), the values are migration robust z-score 0.32; migration class with cell-count check migration z between -2 and 2; enough cells; nuclei per well, duplicate mean 5920.
Silencing of POMC (GeneID 5443) came out at: migration robust z-score -0.55; migration class with cell-count check migration z between -2 and 2; enough cells; nuclei per well, duplicate mean 5737.
ARHGAP20 (GeneID 57569) showed migration robust z-score -1.56; migration class with cell-count check migration z between -2 and 2; enough cells; nuclei per well, duplicate mean 5407.
AUTS2 (GeneID 26053) gave migration robust z-score -0.04; migration class with cell-count check migration z between -2 and 2; enough cells; nuclei per well, duplicate mean 5592.
PCSK9 (GeneID 255738) scored migration robust z-score -0.21; migration class with cell-count check migration z between -2 and 2; enough cells; nuclei per well, duplicate mean 5990.
Depletion of SYNPO2 (GeneID 171024) gave: migration robust z-score 0.34; migration class with cell-count check migration z between -2 and 2; enough cells; nuclei per well, duplicate mean 5722.
After knock-down of HOXA13 (GeneID 3209), the screen gave migration robust z-score -0.15; migration class with cell-count check under 3300 nuclei; migration not judged; nuclei per well, duplicate mean 1076.
Against TIGD6 (GeneID 81789), the entry reads migration robust z-score 0.18; migration class with cell-count check migration z between -2 and 2; enough cells; nuclei per well, duplicate mean 5361.
After knock-down of C5orf34 (GeneID 375444), the screen gave migration robust z-score -1.36; migration class with cell-count check migration z between -2 and 2; enough cells; nuclei per well, duplicate mean 6452.
Knock-down of GADD45B (GeneID 4616) gave: migration robust z-score 1.31; migration class with cell-count check migration z between -2 and 2; enough cells; nuclei per well, duplicate mean 7112.
ATXN7 (GeneID 6314) scored migration robust z-score -0.64; migration class with cell-count check migration z between -2 and 2; enough cells; nuclei per well, duplicate mean 3766.
For ACSL5 (GeneID 51703) the deposit lists migration robust z-score 0.52; migration class with cell-count check migration z between -2 and 2; enough cells; nuclei per well, duplicate mean 4596.
Knock-down of CCL8 (GeneID 6355) resulted in: migration robust z-score 0.32; migration class with cell-count check migration z between -2 and 2; enough cells; nuclei per well, duplicate mean 5737.
Silencing of BACH2 (GeneID 60468) resulted in: migration robust z-score 0.64; migration class with cell-count check migration z between -2 and 2; enough cells; nuclei per well, duplicate mean 5474.
INS-IGF2 (GeneID 723961) showed migration robust z-score 1.39; migration class with cell-count check migration z between -2 and 2; enough cells; nuclei per well, duplicate mean 5896.
Knock-down of CCDC150 (GeneID 284992) came out at: migration robust z-score 0.42; migration class with cell-count check migration z between -2 and 2; enough cells; nuclei per well, duplicate mean 6204.
For PHF3 (GeneID 23469), the values are migration robust z-score 0.18; migration class with cell-count check migration z between -2 and 2; enough cells; nuclei per well, duplicate mean 5348.
BPI (GeneID 671) showed migration robust z-score 0.44; migration class with cell-count check migration z between -2 and 2; enough cells; nuclei per well, duplicate mean 5119.
Against ACKR5 (GeneID 11318) the deposit lists migration robust z-score -0.65; migration class with cell-count check migration z between -2 and 2; enough cells; nuclei per well, duplicate mean 5972.
Depletion of ARSJ (GeneID 79642) came out at: migration robust z-score -0.24; migration class with cell-count check migration z between -2 and 2; enough cells; nuclei per well, duplicate mean 4882.
For RANBP3 (GeneID 8498), the values are migration robust z-score 1.79; migration class with cell-count check migration z between -2 and 2; enough cells; nuclei per well, duplicate mean 6308.

Copied from the listing (2 entries):
ARHGAP20 (GeneID 57569) | migration robust z-score: -1.56; migration class with cell-count check: migration z between -2 and 2; enough cells; nuclei per well, duplicate mean: 5407
AUTS2 (GeneID 26053) | migration robust z-score: -0.04; migration class with cell-count check: migration z between -2 and 2; enough cells; nuclei per well, duplicate mean: 5592
